Reference: patent US20150125550A1, “APPLICATION OF 2,9-DI-SEC-BUTYL-1,10-PHENANTHROLINE AS A GLIOBLASTOMA TUMOR CHEMOTHERAPY” (priority 2013, published 2015)
Entries after “also recorded” stand apart in the source; their conditions may differ. For at least one compound, name, drawing or mass did not settle the structure. Some entries share one result that the patent states for a list of compounds.

Columns and labels:
[1] = Glutathione stability experiments (UV-visible spectra); format: physicochemical; conditions: 5.0×10^−5 M complex, one mole equivalent GSH, phosphate buffer pH 7.4, 15 hours
Method: 5.0×10^−3 M stock solutions of compounds 10-18 were prepared in acetonitrile or DMSO, and subsequently diluted in phosphate buffer (0.10M, pH 7.4) to yield a final gold complex concentration of 5.0×10^−5 M. A stock solution of reduced glutathione in phosphate buffer (0.10M, pH 7.4) was used to add one mole equivalent of GSH to the final gold complex solution, and UV-visible spectra of compounds 10-18 were subsequently collected every hour over a 15 hour period.

GL-26 glioma cells = experiment: SRB growth assay, GL-26 glioma cells, 48 hr drug incubation; format: cell-based, murine (C57BL/6)
Method: The murine (C57BL/6) glioma cell line, GL-26, which is highly tumorigenic in the C57BL/6 mice. GL-26 cells were cultured in DMEM/F12 supplemented with 10% FCS, 1% penicillin/streptomycin, 1% L-glutamine and 1% non-essential amino acids. Human foreskin fibroblasts (HFFs) were cultured in DMEM/F12 supplemented with 10% FCS and 1% penicillin/streptomycin. Primary murine astrocytes were purified from C57BL/6 neonate brains and cultured in DMEM/F12 supplemented with 10% FCS, 1% non-essential amino acids, 1% Lglutamine, 50 IU/ml penicillin, […] and 10 mM Hepes buffer.
The sulforhodamine B (SRB) cytotoxicity assays were adapted from Skehan et al. (22). Briefly, either HFF, primary astrocytes or GL-26 cells were plated in 96-well plates at a density of 4,000 cells/well in a volume of 100 µL overnight at 37° C. and 5% CO2. DMSO stock solutions of SBP, MSBP or TMZ were used at a concentration range of 0.1-25 μM for 48 hr before the supernatant was discarded and the cells were fixed for 1 hr with 10% cold trichloroacetic acid (100 μL, per well). Cells used in recovery assay received fresh media for 48 hrs following the 48 hr drug incubation. The plate was then washed 5 times with de-ionized water, air dried, and stained with 0.4% SRB for 10 min (50 μL, per well). After washing 5 times in 1% acetic acid and air-drying, bound SRB was dissolved in 10 mM unbuffered Tris base (pH 10.5; 100 μL, per well). Bound SRB was then read by absorbance at 492 nm on a SpectraMax plate reader (Molecular Devices). The percent survival was then calculated based upon the absorbance values relative to control wells (0 μM SBP in 0.1% DMSO).

Row | Compound | redox stability in the presence of GSH [1] | further results
1 | CCCCc1ccc2ccc3cccnc3c2n1.[Cl][Au]([Cl])[Cl] [Compound 15, (2-mono-n-butyl-phenanthroline)AuCl3] | – | redox stability in the presence of GSH ([1]; listed as compound 15): formation of colloidal gold(0) was not observed
2 | CCC(C)c1ccc2ccc3ccc(C(C)CC)nc3c2n1.[Cl][Au]([Cl])[Cl] (centres unmarked) [Compound 10, (2,9-di-sec-butyl-1,10-phenanthroline)AuCl3] | formation of colloidal gold(0) was not observed | –
3 | Cc1ccc2ccc3ccc(C)nc3c2n1.[Cl][Au]([Cl])[Cl] [Compound 12, (2,9-di-methyl-1,10-phenanthroline)AuCl3] | nearly identical stability profiles as compound 10 | redox stability in the presence of GSH ([1]; listed as compound 12): formation of colloidal gold(0) was not observed
4 | Cc1cc(-c2ccccc2)nc2c1ccc1ccc(-c3ccccc3)nc12.[Cl][Au]([Cl])[Cl] [Compound 17, (2,9-di-phenyl-4-methtyl-1,10-phenanthroline)AuCl3] | general redox stability in the presence of GSH; also recorded: formation of colloidal gold(0) was not observed | –
5 | [Cl][Au]([Cl])[Cl].c1ccc(-c2ccc3ccc4ccc(-c5ccccc5)nc4c3n2)cc1 [Compound 16, (2,9-di-phenyl-1,10-phenanthroline)AuCl3] | general redox stability in the presence of GSH; also recorded: formation of colloidal gold(0) was not observed | –
6 | CCC(C)c1ccc2ccc3cccnc3c2n1.[Cl][Au]([Cl])[Cl] (centres unmarked) [Compound 14, (2-sec-butyl-1,10-phenanthroline)AuCl3] | nearly identical stability profiles as compound 10 | redox stability in the presence of GSH ([1]; listed as compound 14): formation of colloidal gold(0) was not observed
7 | Cn1nnc2c(C(N)=O)ncn2c1=O [TMZ, Temozolomide, reference compound] | – | GL-26 cell growth inhibition (GL-26 glioma cells; 6 μM): failed to inhibit cell growth; GL-26 cell growth inhibition (GL-26 glioma cells; 25 μM): failed to inhibit cell growth; inhibition of GL-26 tumor cell growth over tested range (GL-26 glioma cells; 0.1 to 25 μM): no inhibition of tumor cell growth up to 25 μM; also recorded: did not change cell number at any tested concentrations
8 | CCC(C)c1ccc2ccc3c(C)cc(C(C)CC)nc3c2n1.[Cl][Au]([Cl])[Cl] (centres unmarked) [Compound 13, (2,9-di-sec-butyl-4-methyl-1,10-phenanthroline)AuCl3] | nearly identical stability profiles as compound 10 | redox stability in the presence of GSH ([1]; listed as compound 13): formation of colloidal gold(0) was not observed
9 | CCCCc1ccc2ccc3ccc(CCCC)nc3c2n1.[Cl][Au]([Cl])[Cl] [Compound 11, (2,9-di-n-butyl-1,10-phenanthroline)AuCl3] | general redox stability in the presence of GSH; also recorded: formation of colloidal gold(0) was not observed | –
